Data reported in paper PMC10776911.
No constants are given. Whether binding was seen depends on the method and setting. Binding seen in cells or lysates may run through a third protein. Some entries that bind do so weakly or less than the wild type.

Sequences of proteins named here, by UniProt entry; tags and fusion partners are left off.
UniProt Q16254: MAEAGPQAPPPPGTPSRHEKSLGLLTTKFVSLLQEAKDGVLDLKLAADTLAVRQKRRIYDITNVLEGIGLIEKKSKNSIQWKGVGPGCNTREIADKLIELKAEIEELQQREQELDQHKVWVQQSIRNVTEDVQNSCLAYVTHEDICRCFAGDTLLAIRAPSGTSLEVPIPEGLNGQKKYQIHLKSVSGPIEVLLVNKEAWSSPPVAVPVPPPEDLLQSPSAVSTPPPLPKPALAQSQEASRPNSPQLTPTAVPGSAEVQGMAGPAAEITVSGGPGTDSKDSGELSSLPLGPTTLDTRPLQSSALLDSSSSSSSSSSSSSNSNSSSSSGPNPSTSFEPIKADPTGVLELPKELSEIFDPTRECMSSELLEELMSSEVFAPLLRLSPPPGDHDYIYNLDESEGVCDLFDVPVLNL
UniProt Q04206: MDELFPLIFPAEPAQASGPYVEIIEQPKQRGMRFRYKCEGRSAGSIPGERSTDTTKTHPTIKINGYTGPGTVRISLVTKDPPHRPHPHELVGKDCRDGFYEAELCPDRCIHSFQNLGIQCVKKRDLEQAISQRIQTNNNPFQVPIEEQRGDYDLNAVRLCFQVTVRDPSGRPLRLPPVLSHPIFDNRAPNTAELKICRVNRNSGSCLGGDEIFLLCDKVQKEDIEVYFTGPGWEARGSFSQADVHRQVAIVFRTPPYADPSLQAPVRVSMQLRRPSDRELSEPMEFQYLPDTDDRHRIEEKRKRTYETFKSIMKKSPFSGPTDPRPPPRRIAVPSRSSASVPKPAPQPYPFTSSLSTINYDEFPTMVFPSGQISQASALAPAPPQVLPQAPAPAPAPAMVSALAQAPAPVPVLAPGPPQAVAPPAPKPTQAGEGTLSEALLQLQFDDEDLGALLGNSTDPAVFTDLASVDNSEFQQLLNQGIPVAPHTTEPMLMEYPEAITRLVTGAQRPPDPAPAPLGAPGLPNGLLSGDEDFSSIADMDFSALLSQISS

Biological target: Myc-tagged E2F4 (human) (UniProt Q16254)
Assay: co-IP

For “Non-tagged human RelA (from UniProt Q04206 1-551)”, the binding was “binds”.
